Assay results from patent US20230250437.

Amino acid sequences for entries named in this document (tags omitted). Residues count along the entry.
UniProt P16422, 24-314: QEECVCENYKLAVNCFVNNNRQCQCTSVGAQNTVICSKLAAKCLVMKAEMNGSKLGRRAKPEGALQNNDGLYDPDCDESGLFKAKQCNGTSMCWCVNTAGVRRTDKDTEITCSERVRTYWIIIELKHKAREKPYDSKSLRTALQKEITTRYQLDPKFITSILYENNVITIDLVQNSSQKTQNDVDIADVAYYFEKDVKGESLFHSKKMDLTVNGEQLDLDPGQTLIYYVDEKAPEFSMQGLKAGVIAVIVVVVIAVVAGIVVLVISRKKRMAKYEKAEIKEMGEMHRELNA

target: EpCAM (UniProt P16422); test: SELEX; conditions: identified by library screening to recognize EpCAM; protein on the cell surface

Selection result, selected:
AUCCAGAGUGACGCAGCAGUCUUUUCUGAUGGACACGUGGUGGUCUAGUAUCACUAAGCCACCGUGUCCA [CAR003]

target: HER2 (ERBB2) (UniProt P04626); test: SELEX; conditions: purified recombinant protein; protein details: His tag, on Ni magnetic beads; single-stranded DNA

Selection result, selected:
CACACCGGTGGCGGGGCAAGAATGGTGGTGGTGGAGA [HER2 binder 3050], AACCCCGGCACCCCCGTCCCCCTTCGATCTGGTCA [HER2 binder 3048], GCGACCCCGCCCACACCCGTTACATCAACTGTTCG [HER2 binder 3052], GTGCTCGCACGATCCCTACCCCCCCGTAGCACCCA [HER2 binder 3043], TGCCCATCCTCCACCCCTCGTGCCGTCGATCCCAC [HER2 binder 3061], GTGCCCCCTTGTCCGTATCGCCCTTCATCCACGTGTGA [HER2 binder 3045], TCAACCGCCGCACGAGCCACCTCTGCACTCCACGC [HER2 binder 3051], TCCACCCGCCCCGACGCGCAACCTAGCCTCAAGCCA [HER2 binder 3053], CCGCACCAACCCAACACACACGAGGTGATGCCCCC [HER2 binder 3056], TTGACTCGCACGCACACACATCACGCACCACCTGC [HER2 binder 3058], GACGCCCCCGCCGTTACCACCACCCGCACTTGAA [HER2 binder 3049], GCCCCAGTCCGCCATCCAGATCCCTGCTCCACCTG [HER2 binder 3054], TCCGCCCTGGTCGCCGCTTCCCCCTGCCGTTTGTT [HER2 binder 3040], ACTCCACCGCTCACCACGCCCAGTGAGCCATCCCT [HER2 binder 3055], AATACCCGCCGCCCCGTACCAATACGCTCCGCACC [HER2 binder 3059], TTGGCCCCAGCCACACACCCGTGCTTACCACCCCC [HER2 binder 3041], ATCCCCCAGGCCCCCCTCCACGGCCAATTCCTTGG [HER2 binder 3042], TCCACGCCCCATCAGCACGTCGGCCTCATACTCCCA [HER2 binder 3047], GTACCCGCCCCCCCCAATGACGCGTTATGCGCCCC [HER2 binder 3060], ATGCCTGCCCAACCCCCTGCCGTCGATTACACCGTA [HER2 binder 3046], CCACGCCCTGGATGTCGCGTTCACTGGTTCTCCCC [HER2 binder 3039], ACCCATCCCACCGCTTAGAGCGCACGCCCCTCCTCTGA [HER2 binder 3057], ACCCATGTGCACCTCCTTCCCGCCTCATCGGGATT [HER2 binder 3044]

For at least one entry, the source does not settle the construct or the ends of the probe. For part of these data: Where cells or extracts were used, other partners may take part.
